This assay can be described thus: qHTS Assay for Lipid Storage Modulators in Drosophila S3 Cells.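 On cell number change: cells counted by Cell Tracker Red CMTPX staining in the red channel.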 The note with it: BODIPY lipid droplet fluorescence, 18-24 h; for cell number change: measured here: cell count max response, cells fed with added oleic acid. Summed up:
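Drosophila S3 cells got compounds at several concentrations plus oleic acid (400 uM solution). Laser-scanning cytometry with 488 nm excitation read lipid droplets at 500-530 nm and cells at 575-640 nm. Percent activity was relative to 20 uM Triacsin C.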
A general note: Quantitative high-throughput screening tests each substance at several concentrations.

[1] abbreviates: measured here: lipid fluorescence (Fed channel) AC50, cells fed with added oleic acid.
[2] abbreviates: measured here: cell number channel AC50, cells fed with added oleic acid.

Some of the results follow. Shown are side measurements of this screen, not its main read-out; they come without a call. The list favours compounds with an active or inconclusive main result. Potencies come from curve fits of mixed quality, noted in brackets.

As for `CCCN(CC1CC1)C(=O)COC(=O)c1oc2ccc(OCC)cc2c1C`, the AC50 under setting [1] was 2.06 µM [falling, full curve].

In the case of `CC(=O)Oc1ccc(-c2csnn2)cc1`, the cell number change turned out to be 16.4%.

In the case of `COc1cccc(CC2(CO)CCCN(Cc3ccc(OC)c(C)c3OC)C2)c1` (stereo unspecified), the cell number change is -6.74%.

As for `Cc1cc(C)cc(N(CCC(=O)O)S(=O)(=O)c2ccc3ccccc3c2)c1`, the cell number change is 18.9%. In addition, under setting [1], the AC50 was 29.1 µM [rising, single point].

Consider `Fc1ccc(-c2nnn(Cc3nc4ccccc4s3)n2)cc1`, for which the cell number change was -0.163%. The AC50 under setting [1] was 23.1 µM [rising, single point].

In the case of `COc1cc(C(=O)NNc2nc3cc4c(cc3s2)OCO4)cc(OC)c1OC`, the cell number change is 9.25%. Moreover, the AC50 under setting [1] was 0.0651 µM [rising, full curve, poor fit].

For `COc1cc(C(=O)N2CCCCC2)ccc1OCC(=O)Nc1ccc(F)cc1`, the cell number change is 4.71%. Further, the AC50 under setting [1] was 29.1 µM [falling, single point].

With `CC(=O)c1c(C)[nH]c(C(=O)OCCOc2ccccc2)c1C`, the cell number change was determined as 15.1%. Moreover, the AC50 under setting [1] was 6.51 µM [rising, single point].

For the compound `COc1ccc2c(Cl)c(C(=O)N/N=C/c3cccnc3)sc2c1`, the cell number change is -4.17%. Also, under setting [1], the AC50 was 11.6 µM [rising, single point].

For the compound `CC1CCN(S(=O)(=O)c2ccc3ccccc3c2)CC1`, the AC50 under setting [1] is 5.17 µM [falling, partial curve].

With `O=C(Nn1c(C2CCCCC2)nc2ccccc2c1=O)c1ccc(Cl)c([N+](=O)[O-])c1`, the cell number change was -18%. Further, the AC50 under setting [2] was 1.03 µM [falling, full curve, poor fit]. Also, the half-maximal activity concentration (AC50) under setting [1] was 0.82 µM [falling, full curve, poor fit].

`Cc1cccc(NC(=O)Nc2ccc(F)cc2)n1`: the cell number change was determined as 10.2%. Moreover, the half-maximal activity concentration (AC50) under setting [1] was 0.092 µM [rising, full curve, poor fit].

As for `C=CCn1c(SCc2ccc(C(=O)Nc3nccs3)cc2)nnc1-c1ccc(C)c(Cl)c1`, the cell number change is -40.2%. In addition, the AC50 under setting [2] was 20.6 µM [falling, single point]. Moreover, under setting [1], the AC50 was 29.1 µM [falling, single point].

With `Cc1ccc(N(C(=O)c2ccco2)C(C(=O)NC2CCCC2)c2cccnc2)cc1C` (stereo unspecified), the cell number change was -11.5%. The AC50 under setting [2] was 5.8 µM [rising, single point]. Besides, the AC50 under setting [1] is 5.17 µM [falling, single point].

As to `CCCn1c(SCC(=O)NC2CCC(C)CC2)n[nH]c1=O` (stereo unspecified), the cell number change was -11.6%.

Take `O=C(O)Cc1sc(Nc2cccc3ccccc23)nc1-c1ccccc1`: the AC50 under setting [1] was 0.231 µM [falling, full curve].

For `CCc1ccc(CNc2ccc3c(c2)ncn3CC)cc1`, the cell number change is -31.3%. Besides, under setting [2], the AC50 was 25.9 µM [falling, single point]. Also, the AC50 under setting [1] was 20.6 µM [falling, single point].

Turning to `CC1CCC(NC(=O)c2cc(S(=O)(=O)N3CCCCC3)c[nH]2)CC1` (stereo unspecified), the cell number change was 24.6%.

Take `COc1ccc(NC(=O)C(C)N(c2ccc(C)cc2)S(C)(=O)=O)cc1` (stereo unspecified): the cell number change is 83.6%. Further, the AC50 under setting [2] was 20.6 µM [rising, partial curve]. In addition, the AC50 under setting [1] is 6.51 µM [falling, single point].

Consider `O=c1[nH]c2cccnc2n(CCNc2ncc(C(F)(F)F)cc2Cl)c1=O`, for which the AC50 under setting [1] is 6.51 µM [falling, single point].

With `COc1ccc(C)cc1NC(=O)C(OC(=O)c1cccc(S(=O)(=O)N(C)c2ccccc2)c1)c1ccccc1` (stereo unspecified), the cell number change was determined as 1.9%. Further, the AC50 under setting [1] was 2.31 µM [falling, partial curve].

Regarding `CCN(CC(=O)Nc1cc(Cl)ccc1C)C(=O)c1nc2nc(C)cc(C)n2n1`, the cell number change is 34.3%. The AC50 under setting [2] was 0.461 µM [rising, full curve]. Moreover, the AC50 under setting [1] is 1.16 µM [rising, full curve].

For `CCn1c(=O)c2sccc2n2c(CCCC(=O)NCCc3ccc(S(N)(=O)=O)cc3)nnc12`, the cell number change came out at 23.4%.

In the case of `O=C(NC1CCCCC1)c1n[nH]c2c1CCCCC2`, the cell number change was -24.9%. Further, the AC50 under setting [1] is 4.11 µM [falling, single point].

As to `CNCC(O)COc1cccc(OC)c1` (stereo unspecified), the cell number change turned out to be 7.06%. Besides, under setting [2], the AC50 is 0.731 µM [falling, full curve]. Moreover, the AC50 under setting [1] was 0.731 µM [falling, full curve].

For the compound `O=C(Nc1ncccc1O)c1ccc(NS(=O)(=O)c2ccc3[nH]c(=O)[nH]c3c2)cc1`, the cell number change was 67.5%. The AC50 under setting [2] is 25.9 µM [rising, partial curve, poor fit]. In addition, the AC50 under setting [1] was 5.17 µM [rising, partial curve].

Turning to `O=c1c2c3nc4ccccc4nc3n(-c3cccc(F)c3)c2ncn1Cc1ccc2c(c1)OCO2`, the cell number change was 34.8%. Further, the AC50 under setting [2] was 29.1 µM [rising, single point]. Besides, the AC50 under setting [1] is 0.058 µM [rising, full curve, poor fit].

On to `CC(OC(=O)c1cccc(S(=O)(=O)N2CCOCC2)c1)C(=O)NC1CCCCC1C` (stereo unspecified), for which the cell number change was -5.04%.

`FC(F)(F)c1ccc(Oc2ccccc2Cl)nc1`: the cell number change is -32.5%. In addition, the AC50 under setting [2] is 0.517 µM [falling, full curve].

As to `CCOc1ccc(NC(=O)c2ccc(CNc3c(N4CCCC4)c(=O)c3=O)cc2)cc1`, the cell number change is -24.5%. Moreover, the AC50 under setting [1] was 2.06 µM [falling, full curve].

With `Cc1cc(C(F)(F)F)c(C#N)c(SCC(=O)Nc2nc3ccccc3s2)n1`, the cell number change was -15.1%. The AC50 under setting [1] is 25.9 µM [falling, single point].

With `Cc1ccc(CNC(=O)N2CCN(c3ccc(C)cc3)CC2)cc1`, the cell number change is -22.7%. The AC50 under setting [1] is 0.58 µM [falling, single point].

Turning to `CN(C)CCNC(=O)c1c(NC(=O)c2ccccc2)sc2c1CCCC2`, the cell number change was -1.17%. Also, the AC50 under setting [1] is 14.6 µM [falling, single point].

On to `COc1ccc(NC(=O)c2ccc3ccccc3c2)cc1`, for which the cell number change was -15.7%. Further, the AC50 under setting [1] was 2.31 µM [rising, partial curve].

With `C=C(C)CSc1nnc([C@H](CCSC)NC(=O)OC(C)(C)C)o1`, the cell number change was determined as 45.8%. The AC50 under setting [2] is 9.2 µM [rising, partial curve, poor fit]. The AC50 under setting [1] is 0.366 µM [rising, full curve, poor fit].

Take `COc1cc(C)c(CNc2ccc(OC)c(OC)c2)cc1C`: the cell number change was -25%.

For the compound `COc1ccc(-c2ncc3ccccn23)cc1`, the cell number change is 2.52%.

With `COc1ccccc1Nc1nc(-c2sc(NC(=O)c3ccco3)nc2C)cs1`, the cell number change is -14.9%. For the same compound, the AC50 under setting [1] is 0.461 µM [rising, full curve].

Turning to `COc1cccc(OCCCn2cc(/C=C3/C(=N)N4C=C(C)SC4=NC3=O)c3ccccc32)c1`, the cell number change is -0.999%. Besides, the AC50 under setting [1] is 29.1 µM [falling, single point].

As a reminder, the AC50 is the concentration giving half of the maximal activity seen.
